Data on five molecules can be found in the supplement of paper PMC10032668.

Protein sequences, listed by entry. Tags and fused reporters are not part of them.
DUSP12, Q9UNI6, UniProt Q9UNI6, whole entry: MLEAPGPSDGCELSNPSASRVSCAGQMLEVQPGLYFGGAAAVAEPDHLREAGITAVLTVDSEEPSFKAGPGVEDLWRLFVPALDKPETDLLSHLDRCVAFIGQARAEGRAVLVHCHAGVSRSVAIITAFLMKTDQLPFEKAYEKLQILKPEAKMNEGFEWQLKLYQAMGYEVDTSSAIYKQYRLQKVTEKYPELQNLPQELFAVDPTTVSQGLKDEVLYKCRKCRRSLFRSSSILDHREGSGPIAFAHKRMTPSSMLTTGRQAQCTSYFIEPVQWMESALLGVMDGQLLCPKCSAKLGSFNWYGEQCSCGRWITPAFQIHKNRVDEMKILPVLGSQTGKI
ANXA11, P50995, UniProt P50995, whole entry: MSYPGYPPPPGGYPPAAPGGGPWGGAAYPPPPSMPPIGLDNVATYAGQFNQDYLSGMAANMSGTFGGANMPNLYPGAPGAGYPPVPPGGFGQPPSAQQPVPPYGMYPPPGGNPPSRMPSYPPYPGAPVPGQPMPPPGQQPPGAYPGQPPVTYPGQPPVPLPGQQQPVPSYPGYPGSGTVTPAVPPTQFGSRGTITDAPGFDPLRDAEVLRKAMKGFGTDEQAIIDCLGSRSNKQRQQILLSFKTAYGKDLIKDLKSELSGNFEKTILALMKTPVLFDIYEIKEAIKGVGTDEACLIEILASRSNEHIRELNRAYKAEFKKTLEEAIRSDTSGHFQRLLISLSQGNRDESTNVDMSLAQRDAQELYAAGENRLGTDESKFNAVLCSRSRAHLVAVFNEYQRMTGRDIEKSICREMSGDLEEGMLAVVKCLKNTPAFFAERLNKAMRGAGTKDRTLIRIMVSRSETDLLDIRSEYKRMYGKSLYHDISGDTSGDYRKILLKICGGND
C7orf31, Q8N865, UniProt Q8N865, whole entry: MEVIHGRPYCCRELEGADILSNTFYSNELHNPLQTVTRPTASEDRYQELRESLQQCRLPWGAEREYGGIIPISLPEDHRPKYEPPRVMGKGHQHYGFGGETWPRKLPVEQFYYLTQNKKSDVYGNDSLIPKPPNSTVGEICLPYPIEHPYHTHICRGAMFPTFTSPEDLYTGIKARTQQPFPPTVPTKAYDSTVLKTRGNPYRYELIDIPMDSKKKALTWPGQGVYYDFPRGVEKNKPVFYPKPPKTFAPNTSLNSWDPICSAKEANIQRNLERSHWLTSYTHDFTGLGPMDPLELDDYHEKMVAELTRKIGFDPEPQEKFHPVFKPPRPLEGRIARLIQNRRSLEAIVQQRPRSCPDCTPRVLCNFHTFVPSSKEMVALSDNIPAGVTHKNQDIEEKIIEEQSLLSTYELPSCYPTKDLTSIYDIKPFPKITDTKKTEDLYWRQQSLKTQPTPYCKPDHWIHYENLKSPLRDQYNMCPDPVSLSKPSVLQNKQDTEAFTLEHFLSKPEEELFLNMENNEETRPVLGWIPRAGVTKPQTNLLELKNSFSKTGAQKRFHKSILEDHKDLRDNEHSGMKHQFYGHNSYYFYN
ITGAD, Q13349, UniProt Q13349, whole entry: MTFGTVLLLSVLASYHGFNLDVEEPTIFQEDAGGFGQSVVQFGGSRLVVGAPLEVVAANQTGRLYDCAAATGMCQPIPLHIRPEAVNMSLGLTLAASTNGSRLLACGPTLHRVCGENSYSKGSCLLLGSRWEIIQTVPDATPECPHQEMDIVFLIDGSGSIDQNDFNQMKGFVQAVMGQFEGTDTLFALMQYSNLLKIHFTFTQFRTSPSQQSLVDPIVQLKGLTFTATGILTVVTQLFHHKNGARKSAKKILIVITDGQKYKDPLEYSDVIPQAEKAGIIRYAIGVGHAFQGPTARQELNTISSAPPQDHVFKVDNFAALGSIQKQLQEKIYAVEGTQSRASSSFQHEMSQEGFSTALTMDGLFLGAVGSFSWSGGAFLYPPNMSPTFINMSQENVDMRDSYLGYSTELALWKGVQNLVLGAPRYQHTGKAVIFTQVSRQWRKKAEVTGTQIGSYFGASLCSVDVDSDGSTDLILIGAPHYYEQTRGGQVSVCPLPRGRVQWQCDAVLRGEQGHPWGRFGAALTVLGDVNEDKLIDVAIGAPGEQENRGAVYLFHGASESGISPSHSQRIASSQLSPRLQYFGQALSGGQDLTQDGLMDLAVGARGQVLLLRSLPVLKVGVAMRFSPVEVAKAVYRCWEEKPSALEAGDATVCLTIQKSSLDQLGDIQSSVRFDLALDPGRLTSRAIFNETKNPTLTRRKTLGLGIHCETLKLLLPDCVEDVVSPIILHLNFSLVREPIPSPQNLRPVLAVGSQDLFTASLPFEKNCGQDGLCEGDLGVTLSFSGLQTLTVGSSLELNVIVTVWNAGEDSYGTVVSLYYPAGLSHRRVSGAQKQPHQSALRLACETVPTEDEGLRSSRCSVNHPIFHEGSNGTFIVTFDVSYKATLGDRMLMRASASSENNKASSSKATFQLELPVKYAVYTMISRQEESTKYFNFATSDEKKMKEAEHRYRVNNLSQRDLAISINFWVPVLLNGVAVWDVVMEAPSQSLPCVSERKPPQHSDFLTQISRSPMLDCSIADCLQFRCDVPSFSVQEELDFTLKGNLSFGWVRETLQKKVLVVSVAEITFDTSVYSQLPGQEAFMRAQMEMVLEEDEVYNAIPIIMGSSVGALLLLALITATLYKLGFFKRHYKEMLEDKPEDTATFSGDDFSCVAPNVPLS
PSMC6, P62333, UniProt P62333, whole entry: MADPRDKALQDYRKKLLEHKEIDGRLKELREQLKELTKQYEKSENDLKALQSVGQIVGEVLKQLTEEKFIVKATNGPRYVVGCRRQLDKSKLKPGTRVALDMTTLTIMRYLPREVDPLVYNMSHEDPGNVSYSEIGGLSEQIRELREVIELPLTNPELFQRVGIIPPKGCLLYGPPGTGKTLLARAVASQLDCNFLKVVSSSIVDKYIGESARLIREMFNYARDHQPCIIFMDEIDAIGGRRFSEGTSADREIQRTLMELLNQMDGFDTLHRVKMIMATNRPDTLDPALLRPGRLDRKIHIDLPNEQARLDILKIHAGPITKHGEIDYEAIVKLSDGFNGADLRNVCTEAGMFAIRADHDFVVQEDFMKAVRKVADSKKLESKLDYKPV

The other results are listed elsewhere or left out. Only hits are listed; about a third recur on repeated control peptides.

Common to all, as to assay: PRISMA enrichment of interactor (LFQ) in peptide spot vs all other peptide spots (log2 fold change); higher = stronger / more specific binding of the interactor to the peptide
For experiment [1], the target named is ANXA5, P08758. As to the method:
(§1)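 PRISMA: 15-aa overlapping tiles (offset 8 aa) of 60 microproteins, plus SOS1/GLUT1 control peptides, were spot-synthesized on cellulose membranes in triplicate. Membranes were incubated with benzonase-treated HEK293T lysate, and bound proteins were identified by LC-MS/MS with LFQ. Enrichment is the log2 fold change of each protein in one spot versus all other spots. Only interactors passing the significance cutoff are listed.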

The target in experiment [2] is DUSP12, Q9UNI6. As to the method:
as §1

Experiment [3] has as its target GTF2E2, P29084. As to the method:
as §1

In experiment [4] the target is KIF1A, Q12756. As to the method: as §1
The target of experiment [5] is PAXBP1, Q9Y5B6. Here is the method: as §1
The target in experiment [6] is ANP32E, Q9BTT0. Here is the method: as §1
Experiment [7] concerns the target EHD1, Q9H4M9. As to the method: as §1
Experiment [8] has as its target FAM91A1, Q658Y4. Here is the method: as §1
Substrate in experiment [9]: PPIF, P30405
As to the method:
as §1

Experiment [10] has as its target PRMT1, Q99873. Here is the method: as §1
For experiment [11], the target named is PSME3, P61289. Here is the method: as §1
Experiment [12] deals with RAB10, P61026. As to the method:
as §1

The target in experiment [13] is SNW1, Q13573. Here is the method: as §1
The target of experiment [14] is ANXA11, P50995. As to the method:
as §1

Experiment [15] addresses DAZAP1, Q96EP5. Here is the method: as §1
In experiment [16] the target is DDX5, P17844. Here is the method: as §1
Experiment [17] addresses DERPC, P0CG12. As to the method:
as §1

The target in experiment [18] is EWSR1, Q01844. As to the method:
as §1

Experiment [19] has as its target G3BP2, Q9UN86. As to the method:
as §1

Experiment [20] has as its target LSM12, Q3MHD2. As to the method: as §1
Experiment [21] deals with MAPK1IP1L, Q8NDC0. Here is the method: as §1
In experiment [22] the target is MARK2, Q7KZI7. Here is the method:
as §1

Experiment [23] has as its target MRPL3, P09001. Here is the method: as §1
Experiment [24] concerns the target SFXN2, Q96NB2. Here is the method: as §1
The target in experiment [25] is ANXA1, P04083. Here is the method: as §1
In experiment [26] the target is APOC4, P55056. Here is the method:
as §1

The target in experiment [27] is BRMS1L, Q5PSV4. Here is the method: as §1
The target of experiment [28] is C7orf31, Q8N865. Here is the method: as §1
In experiment [29] the target is CCAR1, Q8IX12. As to the method:
as §1

The target in experiment [30] is DNAJA3, Q96EY1. Here is the method:
as §1

Experiment [31] deals with DNAJB11, Q9UBS4. As to the method: as §1
Experiment [32] addresses FANCA, O15360. Here is the method:
as §1

Experiment [33] has as its target ITGAD, Q13349. As to the method: as §1
The target in experiment [34] is NUP62, P37198. Here is the method: as §1
Experiment [35] concerns the target PSMC6, P62333. As to the method:
as §1

Experiment [36] concerns the target PTGR2, Q8N8N7. Here is the method:
as §1

Experiment [37] deals with TRMT44, Q8IYL2. As to the method: as §1
Experiment [38] deals with HOMER3, Q9NSC5. Here is the method: as §1
In experiment [39] the target is MED14, O60244. As to the method: as §1
Experiment [40] deals with NAP1L1, P55209. As to the method:
as §1

Experiment [41] addresses NUCKS1, Q9H1E3. As to the method: as §1
The target of experiment [42] is OLA1, Q9NTK5. Here is the method:
as §1

For experiment [43], the target named is RNF213, Q63HN8. As to the method:
as §1

In experiment [44] the target is YTHDC2, Q9H6S0. Here is the method:
as §1

Turning to MPVWWRRRRLRARSW, the “PRISMA enrichment of interactor (log2)” value in [1] was determined as 4.82; in experiment [2], 4.18; in experiment [3], 5.71; in [4], 4.67; in experiment [5] it was 4.26.

On to MQWPEVPALPLLSSL [IDI2-AS1], for which the “PRISMA enrichment of interactor (log2)” value worked out at 5.54 in [6]; 4.81 in experiment [7]; 6.18 in experiment [8]; 5.88 in [9]; 8.46 in experiment [10]; 6.88 in experiment [11]. Moreover, the “PRISMA enrichment of interactor (log2)” value is 4.82 in experiment [12] and 4.43 in experiment [13].

For VWLWIAPYGQLCPQG [GAS5], the “PRISMA enrichment of interactor (log2)” value is 4.53 in experiment [14]; 4.66 in experiment [15]; 4.54 in experiment [16]; 4.38 in [17]; 5.78 in [18]; 5.35 in experiment [19]. Further, the “PRISMA enrichment of interactor (log2)” value in [20] was 5.21; in experiment [21] it was 6.49; in experiment [22], 5.03; in experiment [23], 4.64; in experiment [24] it was 5.82.

SMQLTLTLNTLQLHS [DANCR]: the “PRISMA enrichment of interactor (log2)” value worked out at 3.67 in experiment [25]; 5.3 in experiment [26]; 9.21 in experiment [27]; 4.85 in [28]; 5.25 in experiment [29]; 6.49 in [30]. Moreover, the “PRISMA enrichment of interactor (log2)” value is 4.2 in experiment [31]; 4.46 in experiment [32]; 5.15 in [33]; 3.57 in [34]; 5.14 in experiment [35]; 5.08 in experiment [36]. Moreover, the “PRISMA enrichment of interactor (log2)” value in [37] stood at 4.71.

With RRLRARSWALRGARK, the “PRISMA enrichment of interactor (log2)” value in experiment [1] came to 4.4; in experiment [38], 4.2; in experiment [39], 3.77; in [40], 4.38; in [41] it was 4.45; in experiment [42] it was 4.86. Further, the entries for the “PRISMA enrichment of interactor (log2)” value in experiment [43] and in experiment [44] were 5.76 and 4.48, respectively.
